Assay [1] addresses human ß-tubulin peptides of the region aa 187–211 (human) (UniProt P07437). The assay can be described thus: peptide or protein array.
Assay [2] has as its target human ß-tubulin peptides of the region aa 391–431 (human) (UniProt P07437). Put plainly: peptide or protein array.

Amino acid sequences for entries named in this document (tags omitted). A change or cut given only in a name is not applied to a line headed by its entry. Residues count along the entry.
human ß-tubulin peptides of the region aa 187–211 (P07437, residues 187-211): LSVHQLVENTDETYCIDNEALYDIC
human ß-tubulin peptides of the region aa 391–431 (P07437, residues 391-431): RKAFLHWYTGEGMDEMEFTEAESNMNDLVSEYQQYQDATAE
UniProt O75381: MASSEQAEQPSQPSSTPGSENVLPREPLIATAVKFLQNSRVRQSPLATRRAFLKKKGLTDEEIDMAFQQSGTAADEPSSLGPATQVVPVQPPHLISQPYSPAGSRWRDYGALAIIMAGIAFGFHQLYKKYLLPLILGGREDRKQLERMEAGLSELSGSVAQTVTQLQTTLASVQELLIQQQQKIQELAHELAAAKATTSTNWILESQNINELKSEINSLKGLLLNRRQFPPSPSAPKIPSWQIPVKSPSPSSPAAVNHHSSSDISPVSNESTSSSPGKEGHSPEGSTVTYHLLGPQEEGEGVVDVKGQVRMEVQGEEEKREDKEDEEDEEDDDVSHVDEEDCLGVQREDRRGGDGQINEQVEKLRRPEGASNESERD

No constants are given. Whether binding was seen depends on the method and setting. Binding can be weak; no strength is given.

Regarding “GST-PEX14-NTD (from UniProt O75381) (domain or fragment)”, the binding result in assay [1] and in assay [2] was “binds” each time.

The values are drawn from paper doi:10.1101/2020.07.23.218024.
